From article PMC6331810, “Novel Coumarin-Containing Aminophosphonatesas Antitumor Agent: Synthesis, Cytotoxicity, DNA-Binding and Apoptosis Evaluation” (Molecules, 2015)

system: CT-DNA; experiment: Spectrofluorimetric titration with CT-DNA (Stern-Volmer and binding constants); design: species or system calf; conditions: from lg(F0/F-1) vs lg[DNA]; Tris-HCl buffer pH 7.2
Experimental: The DNA binding properties of compounds 8a–8j were evaluated based on their affinity or interaction with CT-DNA, measured with fluorescence spectrometric titration.
The calibration curve for determination of DNA was constructed by adding different proportion of DNA to a 2.0 × 10^−3 M compound 8j solution (pH = 7.2 Tris-HCl buffer). […] [Q] is the concentration of quencher. KSV is the Stern-Volmer constant and KQ is the bimolecular quenching rate constant. τ0 is the lifetime of the fluorophore in the absence of quencher and for most biomolecules τ0 is about 10^−8 s. The Stern-Volmer constant, KSV, for compound 8j has been determined from the plot of F0/F-1 vs. [DNA] (see Figure 2) and found to be 5.11 × 10^2 M^−1.
When small molecules binding independently to a set of equivalent sites on a macromolecule, the equilibrium between free and bound molecules is given by the equation [28]: (2) lg (F0/F-1) = lgKb + nlg[Q] where Kb and n are the binding constant and the number of binding sites, respectively, which could be got from the curve of lg(F0/F-1) vs. lg[Q]. The plot of lg(F0/F-1) vs. lg[DNA] has been shown in Figure 3 for compound 8j and indicates a simple binding process for the compound.
All fluorescence experiments were carried out on a Perkin-Elmer LS50B luminescence spectrometer. Fluorescence spectra were measured at rt using quartz cells of 1cm path. To the solutions of the drugs (2.0 × 10^−3 M) in 2.5 mL Tris-HCl buffer (pH = 7.2) were added aliquots of CT-DNA (2.0 × 10^−3 M) solution containing drugs (2.0 × 10^−3 M) in 2.5 mL Tris-HCl buffer (pH = 7.2). This operation ensured that the concentration of CT-DNA increased gradually from 0 to 360 µM, while the concentrations of drugs were kept constant. The mixing was achieved by stirring for 10min. Then, the corresponding fluorescence spectra were measured (ex 325 nm, ex/em 1.5 nm/1.5 nm). Binding constants were derived from the modified.

SMILES | n (number of binding sites)
CCOP(=O)(OCC)C(NC(=O)CCOc1ccc2c(C)cc(=O)oc2c1)c1ccccc1F (centres unmarked) [Compound 8b, Diethyl(3-(4-methyl-2-oxo-2H-chromen-7-yloxy)propanamido)(2-fluorophenyl)methylphospho-nate] | 0.83
CCOP(=O)(OCC)C(NC(=O)CCOc1ccc2c(C)cc(=O)oc2c1)c1ccccc1Br (centres unmarked) [Compound 8e, Diethyl(3-(4-methyl-2-oxo-2H-chromen-7-yloxy)propanamido)(2-bromophenyl)methylphospho-nate] | 0.84
CCOP(=O)(OCC)C(NC(=O)CCOc1ccc2c(C)cc(=O)oc2c1)c1ccccc1OC (centres unmarked) [Compound 8h, Diethyl(3-(4-methyl-2-oxo-2H-chromen-7-yloxy)propanamido)(2-methoxyphenyl)methylphos-phonate] | 1.95
CCOP(=O)(OCC)C(C)(NC(=O)CCOc1ccc2c(C)cc(=O)oc2c1)c1ccccc1 (centres unmarked) [Compound 8j, Diethyl 1-(3-(4-methyl-2-oxo-2H-chromen-7-yloxy)propanamido)-1-phenylethylphosphonate] | 1.43
CCOP(=O)(OCC)C(NC(=O)CCOc1ccc2c(C)cc(=O)oc2c1)c1ccccc1Cl (centres unmarked) [Compound 8c, Diethyl(3-(4-methyl-2-oxo-2H-chromen-7-yloxy)propanamido)(2-chlorophenyl)methylphospho-nate] | 0.83
CCOP(=O)(OCC)C(NC(=O)CCOc1ccc2c(C)cc(=O)oc2c1)c1ccc(Br)cc1 (centres unmarked) [Compound 8g, Diethyl(3-(4-methyl-2-oxo-2H-chromen-7-yloxy)propanamido)(4-bromophenyl)methylphosph-onate] | 1.04
CCOP(=O)(OCC)C(NC(=O)CCOc1ccc2c(C)cc(=O)oc2c1)c1ccc2ccccc2c1 (centres unmarked) [Compound 8i, Diethyl(3-(4-methyl-2-oxo-2H-chromen-7-yloxy)propanamido)(naphthalen-2-yl)methylphosph-onate] | 0.96
Cc1cc(=O)oc2cc(O)ccc12 [Compound 2, 7-Hydroxy-4-methyl-2H-chromen-2-one, reference compound] | 1.00
CCOP(=O)(OCC)C(NC(=O)CCOc1ccc2c(C)cc(=O)oc2c1)c1ccc(Cl)cc1 (centres unmarked) [Compound 8d, Diethyl(3-(4-methyl-2-oxo-2H-chromen-7-yloxy)propanamido)(4-chlorophenyl)methylphospho-nate] | 1.05
CCOP(=O)(OCC)C(NC(=O)CCOc1ccc2c(C)cc(=O)oc2c1)c1cccc(Br)c1 (centres unmarked) [Compound 8f, Diethyl(3-(4-methyl-2-oxo-2H-chromen-7-yloxy)propanamido)(3-bromophenyl)methylphospho-nate] | 1.42
CCOP(=O)(OCC)C(NC(=O)CCOc1ccc2c(C)cc(=O)oc2c1)c1ccccc1 (centres unmarked) [Compound 8a, Diethyl(3-(4-methyl-2-oxo-2H-chromen-7-yloxy)propanamido)(phenyl)methylphosphonate] | 0.96
